Patent publication US9060517B2, “Nitrogenated heterocyclic compound and agricultural or horticultural fungicide” (Nippon Soda Co., Ltd., priority 2011, dated 2015)
Some results were stated once for a whole list of compounds, not compound by compound.

Experiments:
Assay type in all cases: in vivo
[1] = test system: cucumber seed rot pathogen (Fusarium oxysporum); assay: Cucumber stem rot seed treatment test (infected seeds); details: infected cucumber seeds treated at 1 g/kg of seeds, 3 weeks after sowing
[2] = test system: cucumber stem rot pathogen (Fusarium oxysporum); assay: Cucumber seed treatment test in soil infected with cucumber stem rot; details: cucumber seeds treated at 1 g/kg of seeds, sown in infected soil, 3 weeks
[3] = test system: cucumber gray mold pathogen (Botrytis cinerea); assay: Cucumber gray mold control test; details: cucumber seedlings (Sagami Hanjiro), emulsion sprayed at 100 ppm, 4 days
Description: Sagami Hanjiro, leaf stage: cotyledon) cultivated in unglazed pots, and allowed to air-dry at room temperature. Subsequently, the seedlings were drip-inoculated with conidiospore suspensions of cucumber gray mold pathogen (Botrytis cinerea) followed by holding for 4 days in a dark room at 20° C. and high humidity. The appearance of lesions on the leaves was compared with untreated seedlings to determine control effects.

[4] = test system: apple scab pathogen (Venturia inaequalis); assay: Apple scab control test (100 ppm spray on apple seedlings); details: apple seedlings (Ralls Janet), emulsion sprayed at 100 ppm, inoculated with Venturia inaequalis, 2 weeks
Description: Ralls Janet, leaf stage: 3 to 4) cultivated in unglazed pots and allowed to air-dry at room temperature. Subsequently, the seedlings were inoculated with conidiospores of apple scab pathogen (Venturia inaequalis) followed by holding for 2 weeks indoors at 20° C. and high humidity using a 12 hour light/dark cycle. The appearance of lesions on the leaves was compared with untreated seedlings to determine control effects.

[5] = test system: apple scab pathogen (Venturia inaequalis); assay: Apple scab control test (125 ppm spray on apple seedlings); details: apple seedlings (Ralls Janet), emulsion sprayed at 125 ppm, inoculated with Venturia inaequalis, 2 weeks

Row | SMILES | control value [1] [%] | control value [2] [%] | control value [3] [%] | control value [4] [%] | control value [5] [%]
1 | COC(C)(C)c1ncccc1Oc1nc2ccc(F)c(F)c2nc1C [Compound 1-35, 5,6-difluoro-2-[2-(1-methoxy-1-methyl-ethyl)-pyridin-3-yloxy]-3-methyl-quinoxaline] | ≥ 75 | ≥ 75 |  |  | 
2 | CC(C)OC(=O)C(C)(C)c1ncccc1Oc1cnc2c(F)c(F)ccc2n1 [Compound 1-38] | ≥ 75 |  | ≥ 75 | ≥ 75 | 
3 | CCOC(C)(C)c1ncccc1Oc1nc2ccc(F)cc2nc1C [Compound 1-64] | ≥ 75 | ≥ 75 | ≥ 75 | ≥ 75 | 
4 | CCC(C)OC(=O)C(C)(C)c1ncccc1Oc1cnc2c(F)c(F)ccc2n1 (stereo not shown) [Compound 1-66] |  |  | ≥ 75 | ≥ 75 | 
5 | CC(C)(C(=O)OC1CCCC1)c1ncccc1Oc1cnc2c(F)c(F)ccc2n1 [Compound 1-67] |  |  | ≥ 75 | ≥ 75 | 
6 | CC(C)(C(=O)OC1CCOC1)c1ncccc1Oc1cnc2c(F)c(F)ccc2n1 (stereo not shown) [Compound 1-69] |  |  | ≥ 75 |  | ≥ 75
7 | CCOC(C)(C)c1ncccc1Oc1nc2cccc(Cl)c2nc1C [Compound 1-71] |  |  | ≥ 75 |  | ≥ 75
8 | CC(C)(C(=O)OC1CCCC1)c1ncccc1Oc1cnc2ccccc2n1 [Compound 1-72] |  |  | ≥ 75 |  | ≥ 75
9 | Cc1nc2ccccc2nc1Oc1cccnc1C(C)(C)C(=O)OC1CCCC1 [Compound 1-73] |  |  | ≥ 75 |  | ≥ 75
10 | CC(C)OC(=O)C(C)(C)c1ncccc1Oc1nc2ccccc2nc1Cl [Compound 1-75] |  |  | ≥ 75 |  | ≥ 75
11 | CC(C)(O)c1ncccc1Oc1cnc2ccccc2c1 [a-2] |  |  | ≥ 75 | ≥ 75 | 
12 | CC(C)(C)C(O)c1ncccc1Oc1cnc2c(F)cccc2c1 (stereo not shown) [a-5] |  |  | ≥ 75 | ≥ 75 | 
13 | Cc1nc2c(F)cccc2cc1Oc1cccnc1C(C)(C)O [a-7, 2-[(8-fluoro-2-methylquinolin-3-yloxy)pyridine-2-yl]propan-2-ol] | ≥ 75 | ≥ 75 |  |  | 
14 | CC(C)(O)C(C)(C)c1ncccc1Oc1cnc2c(F)cccc2c1 [a-14] |  |  | ≥ 75 | ≥ 75 | 
15 | COC(C)(C)c1ncccc1Oc1cc2cccc(F)c2nc1C [a-16, 3-[2-(2-methoxy-2-propyl)pyridin-3-yloxy]-8-fluoro-2-methylquinoline] | ≥ 75 | ≥ 75 |  |  | 
16 | C=CCOC(C)(C)c1ncccc1Oc1cc2cccc(F)c2nc1C [a-17] |  |  | ≥ 75 | ≥ 75 | 
17 | Cc1nc2c(F)cccc2cc1Oc1cccnc1C(C)(C)OCc1ccccc1 [a-18] |  |  | ≥ 75 | ≥ 75 | 
18 | CON(C)C(=O)C(C)(C)c1ncccc1Oc1cnc2c(F)cccc2c1 [a-20] |  |  | ≥ 75 | ≥ 75 | 
19 | CCOC(=O)C(C)(C)c1ncccc1Oc1cc2cccc(F)c2nc1C [a-22] |  |  | ≥ 75 | ≥ 75 | 
20 | CC(C)(O)c1ncccc1Oc1cnc2c(F)c(F)ccc2c1 [a-28] |  |  | ≥ 75 | ≥ 75 | 
21 | Cc1nc2c(F)c(F)ccc2cc1Oc1cccnc1C(C)(C)O [a-29] |  |  | ≥ 75 | ≥ 75 | 
22 | CCc1nc2c(F)c(F)ccc2cc1Oc1cccnc1C(C)(C)OC [a-30] |  |  | ≥ 75 | ≥ 75 | 
23 | COC(C)(C)c1ncccc1Oc1cnc2c(F)c(F)ccc2c1 [a-31] |  |  | ≥ 75 | ≥ 75 | 

Row | SMILES | control value [1] [%] | control value [2] [%] | control value [3] [%] | control value [4] [%] | control value [5] [%]
24 | COC(C)(C)c1ncccc1Oc1cc2ccc(F)c(F)c2nc1C [a-32] |  |  | ≥ 75 | ≥ 75 | 
25 | CC(C)(C#N)c1ncccc1Oc1cnc2c(F)c(F)ccc2c1 [a-33] |  |  | ≥ 75 | ≥ 75 | 
26 | C=CCOC(C)c1ncccc1Oc1cc2cccc(F)c2nc1C (stereo not shown) [a-36] |  |  | ≥ 75 | ≥ 75 | 
27 | CC(C)(CO)c1ncccc1Oc1cnc2c(F)cccc2c1 [a-42] |  |  | ≥ 75 | ≥ 75 | 
28 | CCC(=O)C(C)(C)c1ncccc1Oc1cnc2c(F)cccc2c1 [a-45] | ≥ 75 | ≥ 75 | ≥ 75 | ≥ 75 | 
29 | C#CCOC(C)(C)c1ncccc1Oc1cc2cccc(F)c2nc1C [a-51] |  |  | ≥ 75 | ≥ 75 | 
30 | COC(=O)C(C)(C)c1ncccc1Oc1cnc2c(F)cccc2c1 [a-75] |  |  | ≥ 75 | ≥ 75 | 
31 | Cc1nc2c(F)cccc2cc1Oc1cccnc1C(C)(C)C(=O)OC(C)C [a-76] |  |  | ≥ 75 | ≥ 75 | 
32 | Cc1nc2c(F)c(F)ccc2cc1Oc1cccnc1C(C)(C)C(=O)OC(C)C [a-77] |  |  | ≥ 75 | ≥ 75 | 
33 | C=C(C)c1ncccc1Oc1cc2cccc(F)c2nc1C [a-80] |  |  | ≥ 75 | ≥ 75 | 
34 | CCOC(C)(C)c1ncccc1Oc1cc2ccc(F)c(F)c2nc1C [a-81] |  |  | ≥ 75 | ≥ 75 | 
35 | Cc1nc2c(Cl)cccc2cc1Oc1cccnc1C(C)(C)O [a-84] |  |  | ≥ 75 | ≥ 75 | 
36 | COC(C)(C)c1ncccc1Oc1cc2cccc(Cl)c2nc1C [a-85] |  |  | ≥ 75 | ≥ 75 | 
37 | COC(C)(C)c1ncccc1Oc1cc2cccc(C)c2nc1C [a-87] |  |  | ≥ 75 | ≥ 75 | 
38 | CCOC(C)(CC)c1ncccc1Oc1cc2ccc(F)c(F)c2nc1C (stereo not shown) [a-88] |  |  | ≥ 75 | ≥ 75 | 
39 | CC=C(C)c1ncccc1Oc1cc2ccc(F)c(F)c2nc1C [a-90] |  |  | ≥ 75 | ≥ 75 | 
40 | COC(C)(C)c1ncccc1Oc1cc2ccc(F)cc2nc1C [a-91] |  |  | ≥ 75 | ≥ 75 | 
41 | CCC(C)(OC)c1ncccc1Oc1cc2ccc(F)cc2nc1C (stereo not shown) [a-93] |  |  | ≥ 75 | ≥ 75 | 
42 | C#CCOC(C)(C)c1ncccc1Oc1cc2ccc(F)cc2nc1C [a-96] |  |  | ≥ 75 | ≥ 75 | 
43 | Cc1nc2c(F)cccc2cc1Oc1cccnc1C(C)(C)C(=O)OC1CCCC1 [a-97] |  |  | ≥ 75 |  | ≥ 75
44 | COCC(C)OC(=O)C(C)(C)c1ncccc1Oc1cc2cccc(F)c2nc1C (stereo not shown) [a-98] |  |  | ≥ 75 |  | ≥ 75
45 | Cc1nc2ccccc2cc1Oc1cccnc1C(C)(C)C(=O)OC(C)C [a-99] |  |  | ≥ 75 |  | ≥ 75
46 | Cc1nc2cc(F)ccc2cc1Oc1cccnc1C(C)(C)O [a-100] |  |  | ≥ 75 |  | ≥ 75
